“Also recorded” adds a separate entry of the source. Some entries of the source have several records that differ or are many. This is not the full list of results. The source may hold further records. Values that stand side by side do not match, cause unknown; dose, time, organism, isomer or construct need not be as stated for each record.
Key:
[1] = tested on: COHb; assay: COHb level determination in CO-treated mouse blood ex vivo; conditions: CO-saturated blood from five mice, CO-oximeter
[2] = Reaction of probe with thiol species (LC-MS, NMR); conditions: GSH or H2S (NaHS) in PBS, or NaHS (2 equivalents) in DMA
[3] = Conversion of probe to fluorescent product on reaction with CO; conditions: CO gas; PBS, or DMA diluted with PBS

Compound	COHb level of CO-saturated blood [1]	Reaction with thiol species [2]	Conversion to fluorescent product / fluorescence recovery with CO [3]
[C-]#[O+]	90% and about 90%	–	–
(2-(butylcarbamoyl)-3-hydroxyphenyl)(N^1,N^1,N^2,N^2-tetramethylethylenediamine) palladacycle trifluoromethanesulfonate salt	–	the depalladation species (17) was formed; also recorded: gave 17 as the major product	the phthalimide fluorescent product 22 was formed as the major product; also recorded: the fluorescence intensity was the same as 22 at the same concentration

— patent US20260385973A1, “CARBON MONOXIDE PROBE MOLECULES” (published 2026)
